Measurements: publication PMC8706149 (International Journal of Molecular Sciences, 2021)
≈ marks a conversion by molar mass, not a printed value.

Test system: Staphylococcus aureus ATCC 6538P
Experiment: MIC, broth microdilution
Format: cell-based
Conditions: ATCC6538P, read-out: MIC (µg/mL) Staphylococcus aureus ATCC 6538P
Method: All the labeled peptide after purification were lyophilized and dissolved in water. Purity was veri-fi e d by RP-HPLC on C18 column . Pepti de i dentity was assessed by mass spectrometry anal yses (Supplementary Methods, section S4; Table S1).
S6. Antimicrobial activity assay
MIC (Minimum Inhibitory Concentration) analyses were performed by broth microdilution method for antimicrobial peptides previously described wi th mi nor modi ficati ons. In detai l s, assays were carried out in Nutrient Broth 0.5x (Difco, Detroit, MI, US A ) usi ng st e r i le 96-well polypropylene mi-croti ter pl ates (cat. 3879, C ostar C orp., C ambri dge, MA , US A ). Bacterial strains were grown in Luria-Bertani (LB) medium overnight at 37°C and then diluted in Nutrient Broth at a final concentration of ~5x10^5 CFU/mL per well. Twofold serial dilutions of peptides were carried out in the test wells […]
Plates were incubated overnight at 37°C. MIC value was taken as the lowest concentration at which growth was inhibited. Three independent experiments we r e performed for each MIC value. […] MIC values were measured on Gram-negative ( E scherichia coli ATCC 25922) and Gram-po si t i ve st r ains (Sta phyl o co ccus a ure us ATCC 6538P and Bacillus globigii TNO BMO13) . […]

SMILES: CN[C@H](CC(C)C)C(=O)N[C@H]1C(=O)N[C@@H](CC(N)=O)C(=O)N[C@H]2C(=O)N[C@H]3C(=O)N[C@H](C(=O)N[C@H](C(=O)O)c4cc(O)cc(O)c4-c4cc3ccc4O)[C@H](O)c3ccc(c(Cl)c3)Oc3cc2cc(c3O[C@@H]2O[C@H](CO)[C@@H](O)[C@H](O)[C@H]2O[C@H]2C[C@](C)(N)[C@H](O)[C@H](C)O2)Oc2ccc(cc2Cl)[C@H]1O [Vancomycin, vancomycin]
- MIC: 0.5 µg/mL (≈ 0.345 µM)
